# Experimental data published in PubChem BioAssay AID2685 (National Center for Advancing Translational Sciences (NCATS), 2010).
# Some of the results follow. These are further read-outs of the screen, such as a control signal, another cell line or another target. No call is given for them. Most of these compounds were active or inconclusive in the main read-out, so they are no random draw. The note in brackets gives the kind of curve behind each potency; many fits are weak.
# Test: qHTS Assay for Lipid Storage Modulators in Drosophila S3 Cells;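 for cell number change: cells counted by Cell Tracker Red CMTPX staining in the red channel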
# Settings: BODIPY lipid droplet fluorescence, 18-24 h; for cell number change: measured here: cell count max response, cells fed with added oleic acid
# How it was run: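 Drosophila S3 cells got compounds at several concentrations plus oleic acid (400 uM solution). Laser-scanning cytometry with 488 nm excitation read lipid droplets at 500-530 nm and cells at 575-640 nm. Percent activity was relative to 20 uM Triacsin C.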
# [1] = measured here: lipid fluorescence (Fed channel) AC50, cells fed with added oleic acid
# [2] = measured here: cell number channel AC50, cells fed with added oleic acid
SMILES,cell number change [%],AC50 [1],AC50 [2]
c1ccc(-c2nc3c4ccccc4ccn3c2CN2CCOCC2)cc1,-5.42,"206 nM [falling, full curve, poor fit]",–
COC(=O)/C(C#N)=C/c1cc(C)sc1C,-2.51,–,"36.6 nM [falling, full curve, poor fit]"
COc1cc2c(cc1NC(=S)NC(=O)/C=C/c1ccc(OC)c(OC)c1)oc1ccccc12,11.6,–,–
O=C(O)/C=C/C(=O)Nc1ccc(-n2ccc(C(F)(F)F)n2)cc1,27.8,–,–
O=C(COC(=O)C1CCN(c2ccc(C(F)(F)F)cn2)CC1)c1ccccc1Cl,-28.1,–,–
CN(CC(=O)Nn1cnnc1)S(=O)(=O)c1cc(Cl)ccc1Cl,-37.1,"411 nM [falling, partial curve]","116 nM [falling, full curve, poor fit]"
CN(C(=O)COC(=O)c1ccc(NS(=O)(=O)c2cccs2)cc1)C1CCCCC1,2.71,"1160 nM [falling, full curve, poor fit]",–
CCCOc1ccc2c3c(c(=O)oc2c1OCCC)CCCC3,-25,"2310 nM [rising, single point]",–
CCCCOc1ccc(C(=O)NCC(=O)NC(C)CCc2ccccc2)cc1 (stereo unspecified),14.1,–,–
CCN(CC)c1nc(N)c([N+](=O)[O-])c(NCCO)n1,25.4,"6510 nM [rising, single point]",–
NNC(=O)c1csc(-c2cccc(C(F)(F)F)c2)n1,39.2,"29100 nM [rising, single point]","16400 nM [rising, single point]"
CCOc1ccccc1-n1c(SCC(=O)N2CCCc3ccccc32)nnc1-c1cccnc1,-11.9,"116 nM [rising, full curve, poor fit]",–
Cc1cccc(Nc2nc(OCC#N)nc(N(C)C)n2)c1,2.36,–,–
Cc1ccc(NC(=O)c2ccc(=O)n(CC(=O)Nc3c(C)cc(C)cc3C)n2)cc1,186,"29100 nM [rising, partial curve, poor fit]","20600 nM [rising, single point]"
COc1cc(CN2CCC(n3nccc3NC(=O)C3CC3)CC2)cc(OC)c1,-18.3,"580 nM [rising, single point]",–
O=C1/C(=C/c2cccc([N+](=O)[O-])c2)Oc2cc(O)ccc21,-7.21,"29100 nM [falling, single point]",–
c1cc2c(cc1CN1CCOCC1)OCO2,24.1,"9200 nM [rising, partial curve]",–
COc1ccc(NC(=O)CC(Cc2ccccc2)C(=O)O)cc1 (stereo unspecified),0.132,"7310 nM [falling, partial curve]",–
CCCCn1c(Cc2ccccc2)n[nH]c1=S,88.1,"517 nM [rising, full curve]","517 nM [rising, full curve]"
COc1ccc(CCN2C(=NC(C)=O)SC3CS(=O)(=O)CC32)cc1OC (stereo unspecified),36.8,–,"2060 nM [rising, partial curve]"

# Individual results from above.
# AC50 [1] with CCCOc1ccc2c3c(c(=O)oc2c1OCCC)CCCC3 is entered as 2310 nM [rising, single point]
# AC50 [2] with COc1ccc(CCN2C(=NC(C)=O)SC3CS(=O)(=O)CC32)cc1OC (stereo unspecified) is entered as 2060 nM [rising, partial curve]

# Further entries follow:

SMILES,cell number change [%],AC50 [1],AC50 [2]
Oc1ccc(N2CCN(Cc3ccc(OCCCN4CCCCC4)cc3)CC2)cc1,-10.7,"6510 nM [rising, partial curve, poor fit]",–
COc1ccc(/C=N\NC(=O)c2ccccc2)cc1COc1ccc(F)cc1,-35.1,–,"2060 nM [falling, full curve, poor fit]"
COc1ccc(OCCNS(=O)(=O)c2ccccc2)cc1,19.9,–,–
CCCCCCCOc1ccc(OC(=O)c2cccnc2)cc1,-15.3,–,"103 nM [falling, full curve, poor fit]"
O=C(O)c1cccc(NC(=O)c2cn(-c3ccccc3)nc2-c2ccc(F)cc2)c1,6.74,"580 nM [falling, single point]",–
COc1cc(OC)cc(C(=O)NCC(=O)OCC(=O)C(C)(C)C)c1,-20,"291 nM [falling, full curve, poor fit]",–
CN(CC(=O)Nc1ccccc1C(F)(F)F)C(=O)c1cc(Cl)nc2ccccc12,4.64,–,–
COc1ccc(NC(=O)CN(C)C(=O)c2ccc(S(=O)(=O)Nc3ccccc3C)cc2)cc1,-75,–,"14600 nM [falling, partial curve, poor fit]"
CCc1ccc(S(=O)(=O)NCCc2cn3ccsc3n2)s1,-0.68,"2910 nM [rising, full curve]",–
COc1cc(/C=C2\COC/C(=C\c3ccc(O)c(OC)c3)C2=O)ccc1O,-56.3,"20600 nM [falling, partial curve]","20600 nM [falling, partial curve]"
Cc1cccc(OCc2nnc(NC(=O)c3cccs3)s2)c1,–,"651 nM [falling, single point]",–
Cc1cc(=O)[nH]c(SCc2nc3ccc([N+](=O)[O-])cc3[nH]2)n1,12.8,"651 nM [falling, single point]","461 nM [falling, single point]"
CC(OC(=O)c1ccc(-c2ccc(O)cc2)cc1)C(=O)NC1CCCCC1C (stereo unspecified),-4.87,"29100 nM [falling, partial curve, poor fit]",–
COCCCNC(=S)NC(=O)c1ccccc1,-55,–,"29100 nM [falling, single point]"
CCOC(=O)CSc1nc(N)cc(=O)[nH]1,5.8,"5.17 nM [falling, full curve, poor fit]",–
Cc1cc(C)c2[nH]c(O)c(N=NC(=S)NCC3CCCO3)c2c1 (stereo unspecified),25.7,"6510 nM [rising, single point]",–
CCOc1ccc2nc(SCC(=O)Nc3ccc(S(=O)(=O)N4CCCC4)cc3)c(C)cc2c1,–,"4610 nM [falling, single point]",–
O=C(N/N=C/C=C/c1cccc([N+](=O)[O-])c1)c1ccncc1,9.54,"14.6 nM [falling, full curve]",–
O=C1CCc2ccc(OCCCCN3CCN(c4cccc(Cl)c4Cl)CC3)cc2N1,-76.5,"18400 nM [falling, single point]","20600 nM [falling, single point]"
